Measured values published in US3983248A (priority 1971, dated 1976).
Where a name gives a salt, the structure may show the parent alone. Some entries share one result that the patent states for a list of compounds.

Columns and labels:
[1] = tested on: virus (Vaccinia IHD, Encephalomyocarditis, Influenza Ao (PR8), Influenza A/Equine (Prague), Mengo, Semliki Forest); parameters: species or system mice; conditions: in vivo; 2 to 50 mg. per kg. per administration; challenge viruses of Examples 6 to 22
[2] = tested on: virus (Encephalomyocarditis, Influenza Ao (PR8), Influenza A/Equine (Prague), Mengo, Semliki Forest, Vaccinia IHD); type: in vivo, mice; conditions: period of observation 9 or 10 days; prophylactic and therapeutic; 2 to 50 mg. per kg. per administration

Structure (SMILES)	antiviral activity [1]	antiviral activity: mean day of death of treated animals compared to controls [2]
CCCCN(CCCC)CCCNS(=O)(=O)c1ccc2c(c1)C(=O)c1ccc(S(=O)(=O)NCCCN(CCCC)CCCC)cc1C2=O.Cl.Cl [Example 1, 2,6-Bis-[N-(3-dibutylaminopropyl)sulfamoyl]-anthraquinone dihydrochloride]	antivirally active	prolonging the mean day of death
CCCCN(CCCC)CCCNS(=O)(=O)c1ccc2c(c1)C(=O)c1cc(S(=O)(=O)NCCCN(CCCC)CCCC)ccc1C2=O [Example 6, 2,7-Bis-[N-(3-dibutylaminopropyl)sulfamoyl]-anthraquinone]	antivirally active	prolonging the mean day of death
CCCCN(CCCC)CCCNS(=O)(=O)c1cccc2c1C(=O)c1c(cccc1S(=O)(=O)NCCCN(CCCC)CCCC)C2=O.Cl.Cl [Example 15, 1,8-Bis-[N-(3-dibutylaminopropyl)sulfamoyl]-anthraquinone dihydrochloride]	antivirally active	prolonging the mean day of death
CCCCN(CCCC)CCCNS(=O)(=O)c1cccc2c1C(=O)c1cccc(S(=O)(=O)NCCCN(CCCC)CCCC)c1C2=O [Example 16, 1,5-Bis-[N-(3-dibutylaminopropyl)sulfamoyl]-anthraquinone]	antivirally active	prolonging the mean day of death
CCCCN(CCCC)CCCNS(=O)(=O)c1ccc2c(c1)C(=O)c1cccc(S(=O)(=O)NCCCN(CCCC)CCCC)c1C2=O [Example 17, 1,6-Bis-[N-(3-dibutylaminopropyl)sulfamoyl]-anthraquinone diacid maleate]	antivirally active	prolonging the mean day of death
CC(C)CCN(CCCNS(=O)(=O)c1ccc2c(c1)C(=O)c1ccc(S(=O)(=O)NCCCN(CCC(C)C)CCC(C)C)cc1C2=O)CCC(C)C.Cl.Cl [Example 18, 2,6-Bis-[N-(3-diisopentylaminopropyl)-sulfamoyl]anthraquinone dihydrochloride]	antivirally active	prolonging the mean day of death
CCCCN(CCCC)CCNS(=O)(=O)c1ccc2c(c1)C(=O)c1ccc(S(=O)(=O)NCCN(CCCC)CCCC)cc1C2=O [Example 19, 2,6-Bis-[N-(2-dibutylaminoethyl)sulfamoyl]-anthraquinone]	antivirally active	prolonging the mean day of death
C=CCN(CC=C)CCCNS(=O)(=O)c1ccc2c(c1)C(=O)c1ccc(S(=O)(=O)NCCCN(CC=C)CC=C)cc1C2=O [Example 20, 2,6-Bis-[N-(3-diallylaminopropyl)sulfamoyl]-anthraquinone diacid maleate]	antivirally active	prolonging the mean day of death
CCCN(CCC)CCCNS(=O)(=O)c1ccc2c(c1)C(=O)c1ccc(S(=O)(=O)NCCCN(CCC)CCC)cc1C2=O.Cl.Cl [Example 21, 2,6-Bis-[N-(3-dipropylaminopropyl)sulfamoyl]-anthraquinone dihydrochloride]	antivirally active	prolonging the mean day of death
CCCCCN(CCCCC)CCCNS(=O)(=O)c1ccc2c(c1)C(=O)c1ccc(S(=O)(=O)NCCCN(CCCCC)CCCCC)cc1C2=O.Cl.Cl [Example 22, 2,6-Bis-[N-(3-dipentylaminopropyl)sulfamoyl]-anthraquinone dihydrochloride]	antivirally active	prolonging the mean day of death
